In PMC6542935:
Results are given in words; binding and its absence hold for the method and conditions named.

Biological target: T1, LAX PANICLE 1 (rice (Oryza sativa)) (UniProt Q7XAQ6)
T1 sequence: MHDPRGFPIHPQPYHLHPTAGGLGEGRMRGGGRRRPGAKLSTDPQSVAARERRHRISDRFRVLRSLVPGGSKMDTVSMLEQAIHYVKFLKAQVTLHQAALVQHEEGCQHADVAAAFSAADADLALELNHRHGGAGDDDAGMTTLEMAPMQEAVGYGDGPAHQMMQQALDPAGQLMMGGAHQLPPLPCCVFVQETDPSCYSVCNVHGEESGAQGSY
Assay: two-hybrid; OsSPL7 as prey in pGAD-T7, LAX1 or LAX2 as bait in pGBK-T7; yeast on SD-LT and SD-LTAH media (Clontech system)

binding: no binding
B1: OsSPL7 (protein, UniProt Q7XT42 1-360)
chain: MEGNGCGGSGATPRGVVGMHWAPVVTSPPSPQPPFLPPAPCRPDVQMQQQGGLTCLKLGKRPCFWGGDGAGQVAQGSGGGGGGGGGGSADQGKRKEKAATAVPVVPRCQVEGCDITLQGVKEYHRRHKVCEVHAKAPRVVVHGTEQRFCQQCSRFHVLAEFDDAKKSCRRRLAGHNERRRRSNASEAMARGSAHPHGMPVLGHGFPPYGLPTSSAGALSLLSSARATGPWLMPTPDISARSSAALDELIAENRAALLSWQFFSDRQPPPAGRPTGRSPGSETAGGWHAHLQARPPPPGAGGQHENQSGHVTLDLMQATTAAGGSGAPFRPVPARPPKEGGDAGCTSDAWTPSPMEGARVV
